Test results published in patent publication US7067646.
No constants are given. Whether binding was seen depends on the method and setting. In cells and extracts the contact can be indirect. Some results given as binding are weak or reduced against the parent protein; the word gives no strength. Tags and fused reporters may be left off the sequences shown.

Sequences of proteins named here, by UniProt entry; tags and fusion partners are left off. A change or cut given only in a name is not applied to a line headed by its entry.
UniProt Q5T4S7: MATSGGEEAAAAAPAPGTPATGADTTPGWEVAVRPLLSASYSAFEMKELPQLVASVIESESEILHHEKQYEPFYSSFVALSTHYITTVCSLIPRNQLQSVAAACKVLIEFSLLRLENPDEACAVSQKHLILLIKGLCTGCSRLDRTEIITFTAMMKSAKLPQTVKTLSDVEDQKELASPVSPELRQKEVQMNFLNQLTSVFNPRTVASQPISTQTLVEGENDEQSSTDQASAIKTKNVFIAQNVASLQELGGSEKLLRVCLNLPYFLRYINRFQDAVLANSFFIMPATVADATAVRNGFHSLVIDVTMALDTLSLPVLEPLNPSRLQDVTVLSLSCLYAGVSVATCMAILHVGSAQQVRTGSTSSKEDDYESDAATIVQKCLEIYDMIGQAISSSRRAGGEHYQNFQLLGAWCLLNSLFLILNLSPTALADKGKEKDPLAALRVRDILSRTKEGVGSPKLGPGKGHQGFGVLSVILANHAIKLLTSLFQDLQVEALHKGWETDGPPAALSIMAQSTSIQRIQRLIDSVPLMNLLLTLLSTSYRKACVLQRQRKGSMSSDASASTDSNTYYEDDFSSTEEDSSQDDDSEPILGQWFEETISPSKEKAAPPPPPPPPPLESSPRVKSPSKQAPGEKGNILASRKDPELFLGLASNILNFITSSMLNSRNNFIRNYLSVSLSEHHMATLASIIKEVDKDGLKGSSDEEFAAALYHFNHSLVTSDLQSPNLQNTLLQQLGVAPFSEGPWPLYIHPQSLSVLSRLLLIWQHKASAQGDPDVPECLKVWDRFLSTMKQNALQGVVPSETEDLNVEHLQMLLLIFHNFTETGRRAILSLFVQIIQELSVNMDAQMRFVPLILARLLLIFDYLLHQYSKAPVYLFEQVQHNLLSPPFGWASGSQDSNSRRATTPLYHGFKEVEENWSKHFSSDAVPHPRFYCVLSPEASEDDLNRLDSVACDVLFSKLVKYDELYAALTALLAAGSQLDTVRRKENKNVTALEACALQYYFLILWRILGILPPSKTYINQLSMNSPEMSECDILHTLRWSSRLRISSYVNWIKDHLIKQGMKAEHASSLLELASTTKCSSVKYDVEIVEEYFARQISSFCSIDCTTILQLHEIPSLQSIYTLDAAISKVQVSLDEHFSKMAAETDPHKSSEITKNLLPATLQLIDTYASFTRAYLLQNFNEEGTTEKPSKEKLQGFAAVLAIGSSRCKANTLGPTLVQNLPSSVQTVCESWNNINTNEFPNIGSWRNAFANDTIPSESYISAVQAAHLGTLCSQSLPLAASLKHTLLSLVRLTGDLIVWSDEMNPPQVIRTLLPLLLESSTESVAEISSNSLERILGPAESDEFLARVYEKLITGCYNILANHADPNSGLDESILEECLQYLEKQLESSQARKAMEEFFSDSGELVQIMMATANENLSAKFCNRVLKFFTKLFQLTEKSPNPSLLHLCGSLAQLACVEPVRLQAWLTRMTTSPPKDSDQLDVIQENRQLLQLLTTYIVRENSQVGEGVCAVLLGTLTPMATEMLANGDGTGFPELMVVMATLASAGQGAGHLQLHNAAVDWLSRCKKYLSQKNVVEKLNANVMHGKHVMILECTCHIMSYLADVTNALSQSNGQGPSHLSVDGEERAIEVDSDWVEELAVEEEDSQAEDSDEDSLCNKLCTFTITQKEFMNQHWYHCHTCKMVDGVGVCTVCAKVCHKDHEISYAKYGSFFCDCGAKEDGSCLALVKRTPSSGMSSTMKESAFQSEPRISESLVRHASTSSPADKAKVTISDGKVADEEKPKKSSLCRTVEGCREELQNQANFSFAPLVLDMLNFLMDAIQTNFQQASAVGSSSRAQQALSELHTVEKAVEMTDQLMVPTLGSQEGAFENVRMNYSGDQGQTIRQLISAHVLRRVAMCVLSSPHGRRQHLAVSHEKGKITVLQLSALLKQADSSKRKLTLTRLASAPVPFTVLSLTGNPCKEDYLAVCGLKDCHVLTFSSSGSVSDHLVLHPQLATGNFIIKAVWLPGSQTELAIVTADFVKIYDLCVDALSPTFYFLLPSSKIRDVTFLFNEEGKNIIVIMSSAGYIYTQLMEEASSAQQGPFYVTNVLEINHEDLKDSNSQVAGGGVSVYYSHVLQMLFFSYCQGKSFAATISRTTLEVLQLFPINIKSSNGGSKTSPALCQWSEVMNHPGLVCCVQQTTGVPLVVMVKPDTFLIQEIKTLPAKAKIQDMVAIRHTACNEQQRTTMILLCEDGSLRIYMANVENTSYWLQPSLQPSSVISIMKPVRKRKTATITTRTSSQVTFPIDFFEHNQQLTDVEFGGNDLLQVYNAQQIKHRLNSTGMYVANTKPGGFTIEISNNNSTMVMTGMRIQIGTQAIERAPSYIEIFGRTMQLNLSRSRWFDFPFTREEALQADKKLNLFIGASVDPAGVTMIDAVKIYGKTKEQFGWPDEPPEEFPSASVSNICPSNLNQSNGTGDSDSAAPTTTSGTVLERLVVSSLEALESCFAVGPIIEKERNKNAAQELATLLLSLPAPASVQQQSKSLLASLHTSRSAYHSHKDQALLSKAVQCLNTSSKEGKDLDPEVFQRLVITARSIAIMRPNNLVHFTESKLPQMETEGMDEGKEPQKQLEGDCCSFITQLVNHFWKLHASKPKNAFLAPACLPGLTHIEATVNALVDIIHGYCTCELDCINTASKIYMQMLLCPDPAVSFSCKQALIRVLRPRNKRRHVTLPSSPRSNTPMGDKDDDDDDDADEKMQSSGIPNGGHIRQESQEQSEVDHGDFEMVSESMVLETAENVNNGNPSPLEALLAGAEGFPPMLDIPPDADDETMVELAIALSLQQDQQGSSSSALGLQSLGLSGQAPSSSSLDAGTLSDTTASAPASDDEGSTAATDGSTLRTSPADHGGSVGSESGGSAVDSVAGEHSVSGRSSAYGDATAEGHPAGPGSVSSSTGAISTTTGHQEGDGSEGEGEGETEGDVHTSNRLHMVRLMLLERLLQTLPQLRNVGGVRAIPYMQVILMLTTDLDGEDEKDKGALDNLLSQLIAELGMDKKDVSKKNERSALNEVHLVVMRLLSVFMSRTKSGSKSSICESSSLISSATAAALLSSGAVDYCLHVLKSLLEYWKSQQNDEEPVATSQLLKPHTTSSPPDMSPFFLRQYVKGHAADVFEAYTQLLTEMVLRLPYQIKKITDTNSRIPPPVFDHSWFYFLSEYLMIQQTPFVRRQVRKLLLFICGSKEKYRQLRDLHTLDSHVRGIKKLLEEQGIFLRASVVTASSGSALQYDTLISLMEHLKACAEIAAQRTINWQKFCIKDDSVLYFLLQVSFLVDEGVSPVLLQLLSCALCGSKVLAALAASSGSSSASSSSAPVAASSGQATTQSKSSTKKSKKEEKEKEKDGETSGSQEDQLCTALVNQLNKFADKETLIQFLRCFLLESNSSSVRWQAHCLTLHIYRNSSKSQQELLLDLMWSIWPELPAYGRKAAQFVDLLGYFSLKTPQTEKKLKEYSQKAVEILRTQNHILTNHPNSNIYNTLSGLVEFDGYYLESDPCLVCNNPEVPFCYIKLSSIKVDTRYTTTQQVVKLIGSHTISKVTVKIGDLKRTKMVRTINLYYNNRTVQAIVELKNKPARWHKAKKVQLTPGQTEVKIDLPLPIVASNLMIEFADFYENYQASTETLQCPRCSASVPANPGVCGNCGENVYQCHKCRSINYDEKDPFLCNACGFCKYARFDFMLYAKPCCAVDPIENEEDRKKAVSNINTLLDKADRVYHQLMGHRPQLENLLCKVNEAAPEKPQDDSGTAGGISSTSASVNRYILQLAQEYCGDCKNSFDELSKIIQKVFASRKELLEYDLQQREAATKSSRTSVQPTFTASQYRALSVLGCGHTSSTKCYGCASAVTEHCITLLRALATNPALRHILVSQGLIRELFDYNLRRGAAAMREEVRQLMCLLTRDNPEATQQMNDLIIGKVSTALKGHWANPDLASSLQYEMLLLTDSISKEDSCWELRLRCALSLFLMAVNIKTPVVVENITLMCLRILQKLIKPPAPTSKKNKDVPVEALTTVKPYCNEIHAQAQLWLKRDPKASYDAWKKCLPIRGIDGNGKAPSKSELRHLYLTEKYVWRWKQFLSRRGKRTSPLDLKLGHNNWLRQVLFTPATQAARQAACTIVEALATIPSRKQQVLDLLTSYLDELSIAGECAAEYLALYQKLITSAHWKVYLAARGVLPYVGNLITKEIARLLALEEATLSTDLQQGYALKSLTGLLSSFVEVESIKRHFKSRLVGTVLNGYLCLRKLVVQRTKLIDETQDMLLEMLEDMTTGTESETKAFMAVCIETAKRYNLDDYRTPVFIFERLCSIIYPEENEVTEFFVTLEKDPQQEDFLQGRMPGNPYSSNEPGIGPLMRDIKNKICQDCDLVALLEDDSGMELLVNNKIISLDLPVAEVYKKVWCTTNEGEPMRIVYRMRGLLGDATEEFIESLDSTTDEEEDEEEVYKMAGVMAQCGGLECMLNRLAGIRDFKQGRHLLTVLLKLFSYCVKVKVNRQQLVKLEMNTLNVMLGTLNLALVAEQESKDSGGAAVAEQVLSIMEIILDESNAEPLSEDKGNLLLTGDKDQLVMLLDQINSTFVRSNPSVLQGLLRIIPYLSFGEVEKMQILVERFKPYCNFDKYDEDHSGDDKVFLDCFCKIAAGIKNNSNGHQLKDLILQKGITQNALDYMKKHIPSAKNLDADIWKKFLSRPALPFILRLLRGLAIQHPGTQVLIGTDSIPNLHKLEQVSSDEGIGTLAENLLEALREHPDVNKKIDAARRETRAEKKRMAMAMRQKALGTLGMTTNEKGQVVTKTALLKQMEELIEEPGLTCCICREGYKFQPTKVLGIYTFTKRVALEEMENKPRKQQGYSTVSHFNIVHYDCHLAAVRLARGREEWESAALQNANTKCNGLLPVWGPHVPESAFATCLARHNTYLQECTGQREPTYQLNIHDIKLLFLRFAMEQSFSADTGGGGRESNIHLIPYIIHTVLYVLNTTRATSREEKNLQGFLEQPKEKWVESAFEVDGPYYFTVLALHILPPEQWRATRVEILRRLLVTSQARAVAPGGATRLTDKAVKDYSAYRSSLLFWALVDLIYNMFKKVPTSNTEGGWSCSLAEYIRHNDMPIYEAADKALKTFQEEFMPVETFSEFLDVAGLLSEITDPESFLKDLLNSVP

How the values were obtained:
[1] = biological target: MTAF600 (microtubule associated factor 600) (human) (UniProt Q5T4S7); assay: GST pull-down of large pocket domains, immunoblot
[2] = biological target: MTAF600 (microtubule associated factor 600) (human) (UniProt Q5T4S7); assay: GST pull-down from HeLa nuclear extract, anti-MTAF600 immunoblot

B1: GST fusion of the large pocket domain of p107 (protein, UniProt P28749 385-1068, looked up, not shown: a dimerising Fc or GST)
chain: TPVASATQSVSRLQSIVAGLKNAPSDQLINIFESCVRNPVENIMKILKGIGETFCQHYTQSTDEQPGSHIDFAVNRLKLAEILYYKILETVMVQETRRLHGMDMSVLLEQDIFHRSLMACCLEIVLFAYSSPRTFPWIIEVLNLQPFYFYKVIEVVIRSEEGLSRDMVKHLNSIEEQILESLAWSHDSALWEALQVSANKVPTCEEVIFPNNFETGNGGNVQGHLPLMPMSPLMHPRVKEVRTDSGSLRRDMQPLSPISVHERYSSPTAGSAKRRLFGEDPPKEMLMDKIITEGTKLKIAPSSSITAENVSILPGQTLLTMATAPVTGTTGHKVTIPLHGVANDAGEITLIPLSMNTNQESKVKSPVSLTAHSLIGASPKQTNLTKAQEVHSTGINRPKRTGSLALFYRKVYHLASVRLRDLCLKLDVSNELRRKIWTCFEFTLVHCPDLMKDRHLDQLLLCAFYIMAKVTKEERTFQEIMKSYRNQPQANSHVYRSVLLKSIPREVVAYNKNINDDFEMIDCDLEDATKTPDCSSGPVKEERGDLIKFYNTIYVGRVKSFALKYDLANQDHMMDAPPLSPFPHIKQQPGSPRRISQQHSIYISPHKNGSGLTPRSALLYKFNGSPSKSLKDINNMIRQGEQRTKKRVIAIDSDAESPAKRVCQENDDVLLKRLQDVVSERANH
- binding [1]: binds
- binding [2]: binds
